Patent publication US20150218629

Molecular target: T1, Hel308 Mbu + 5th domain Hel308 Hla (UniProt Q12WZ6)
T1 sequence: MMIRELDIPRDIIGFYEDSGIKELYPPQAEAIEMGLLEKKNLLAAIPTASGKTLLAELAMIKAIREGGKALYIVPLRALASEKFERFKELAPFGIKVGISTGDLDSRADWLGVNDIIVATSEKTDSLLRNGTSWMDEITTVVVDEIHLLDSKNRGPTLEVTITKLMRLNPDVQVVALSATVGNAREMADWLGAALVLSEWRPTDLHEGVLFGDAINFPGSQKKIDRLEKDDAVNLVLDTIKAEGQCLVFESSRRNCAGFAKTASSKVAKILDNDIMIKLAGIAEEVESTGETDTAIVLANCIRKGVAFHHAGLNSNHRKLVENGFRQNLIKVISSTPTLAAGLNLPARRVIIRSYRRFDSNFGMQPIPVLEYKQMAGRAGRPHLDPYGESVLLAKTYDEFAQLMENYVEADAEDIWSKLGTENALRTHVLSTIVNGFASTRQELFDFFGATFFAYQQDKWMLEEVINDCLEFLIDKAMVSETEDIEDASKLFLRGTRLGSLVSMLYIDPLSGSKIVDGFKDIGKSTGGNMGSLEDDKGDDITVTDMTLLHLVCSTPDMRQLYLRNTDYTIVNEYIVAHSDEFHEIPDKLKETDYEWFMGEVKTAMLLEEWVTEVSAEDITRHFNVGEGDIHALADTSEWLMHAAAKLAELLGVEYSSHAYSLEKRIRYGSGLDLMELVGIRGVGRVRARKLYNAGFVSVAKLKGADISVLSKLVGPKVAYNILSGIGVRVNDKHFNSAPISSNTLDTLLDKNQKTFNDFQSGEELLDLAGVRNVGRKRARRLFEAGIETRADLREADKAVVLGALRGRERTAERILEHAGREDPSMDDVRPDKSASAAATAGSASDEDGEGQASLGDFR
Experiment: binding assay
Conditions: four 2'-O-methyl uracil at 5' end of SEQ 70; MspA nanopore controlled DNA movement; 100 nM enzyme, 400 mM NaCl, 1 mM ATP, 1 mM MgCl2, +140 mV; purified recombinant protein; protein details: 5th domain of Hel308 Hla fused to C-terminus; label: 3' cholesterol TEG on SEQ 71

“TTTTTTTTTTTTTTTTTTTTTTTTTTTTTTTTTTTTTTTTTTTTTGCCATCAGATTGTGTTTGTTAGTCGCTGGTTGTTTCTGTTGGTGCTGATATTGCTTTTGATGCCGACCCTAAATTTTTTGCCTGTTTGGTTCGCTTTGAGTCTTCTTCGGTTCCGACTACCCTCCCGACTGCCTATGATGTTTATCCTTTGAATGGTCGCCATGATGGTGGTTATTATACCGTCAAGGACTGTGTGACTATTGACGTCCTTCCCCGTACGCCGGGCAATAACGTTTATGTTGGTTTCATGGTTTGGTCTAACTTTACCGCTACTAAATGCCGCGGATTGGTTTCGCTGAATCAGGTTATTAAAGAGATTATTTGTCTCCAGCCACTTAAGTGAGGTGATTTATGTTTGGTGCTATTGCTGGCGGTATTGCTTCTGCTCTTGCTGGTGGCGCCATGTCTAAATTGTTTGGAGGCGGTCTTTTTCCCCCTTTTTCCCCCTTTTTCCCCCTTTTTCCCCCTTTTTCCCCC / AGCGACTAACAAACACAATCTGATGGCTTTTTTTTTTTTTTTTTTTTTTTTTTTTTT”: binds.

Construct, isoform or probe ends are uncertain for at least one entry. Tags and fusion partners may be left off the protein sequences shown.
